According to patent US4399066 (dated 1983):

Test: general procedure: solution-phase peptide synthesis; OSu active ester

| Substance | step yield (coupling step) | step yield (late stage modification step) |
| --- | --- | --- |
| D-Lac(OAc)-L-Ala-γ-D-Glu(α-OBzl)-(L)-Boc-(D)-mesoDAP-(L)-L-Ser-(D)-NHNHBoc | 47.4% | – |
| D-Lac(OAc)-L-Ala-γ-D-Glu(α-OBzl)-(L)-mesoDAP-(L)-L-Ser | – | 71.4% |
